Measurements as given in the supplement of paper PMC10331698.
± gives the standard deviation of the averaged measurements. Small differences around the control level are noise.

Key:
Test in all cases: level (log10 ratio to DMSO vehicle control); higher = higher biomarker level / cell amount than vehicle control
[1] = compound: FC(F)(F)COC(OCC(F)(F)F)OCC(F)(F)F [tris(Trifluoroethoxy)methane] (in DMSO); conditions: 2200 nM
Protocol: (§1)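 BioMAP Diversity Plus panel of 12 human primary cell co-culture systems (3C, 4H, LPS, SAg, BT, BF4T, BE3C, CASM3C, HDF3CGF, KF3CT, MyoF, Mphg). Compounds were added 1 h before stimulation and left for 24 h (MyoF 48 h; BT 72 h for soluble read-outs or 6 d for IgG). Biomarkers were read by ELISA, cytotoxicity by SRB, PBMC viability and proliferation by Alamar Blue. Each well value was divided by the mean of 8 DMSO control wells on the same plate and log10 transformed; duplicate blinded samples were tested at 4 concentrations.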

[2] = compound: O=S(=O)(O)C(F)(F)C(F)(F)C(F)(F)C(F)(F)F [Perfluorobutanesulfonic acid] (in DMSO)
Protocol: as §1

[3] = compound: OCC(F)(F)C(F)(F)C(F)(F)C(F)(F)C(F)(F)C(F)(F)CO [1H,1H,8H,8H-Perfluorooctane-1,8-diol] (in DMSO); conditions: 2200 nM
Protocol: as §1

[4] = compound: OCCCC(F)(F)C(F)(F)C(F)(F)C(F)(F)C(F)(F)C(F)(F)C(F)(F)C(F)(F)F [3-(Perfluorooctyl)propanol] (in DMSO); conditions: 2200 nM
Protocol: as §1

[5] = compound: OCC(F)(F)OC(F)(F)C(F)(F)OC(F)(F)CO [1H,1H,8H,8H-Perfluoro-3,6-dioxaoctane-1,8-diol] (in DMSO); conditions: 2200 nM
Protocol: as §1

Hexafluoroglutaric acid = compound: O=C(O)C(F)(F)C(F)(F)C(F)(F)C(=O)O [Hexafluoroglutaric acid] (in DMSO)
Protocol: as §1

[6] = compound: FC(F)(F)C(F)(F)CNCC(F)(F)C(F)(F)F [Bis(1H,1H-perfluoropropyl)amine] (in DMSO); conditions: 2200 nM
Protocol: as §1

[7] = compound: OCC(F)(F)C(F)(F)C(F)(F)C(F)F [1H,1H,5H-Perfluoropentanol] (in DMSO); conditions: 2200 nM
Protocol: as §1

[8] = compound: OCC(F)(F)C(F)(F)C(F)(F)C(F)(F)C(F)(F)C(F)(F)F [6:1 Fluorotelomer alcohol] (in DMSO); conditions: 2200 nM
Protocol: as §1

Perfluorohexanoic acid = compound: O=C(O)C(F)(F)C(F)(F)C(F)(F)C(F)(F)C(F)(F)F [Perfluorohexanoic acid] (in DMSO)
Protocol: as §1

[9] = compound: O=C(O)C(F)(OC(F)(F)C(F)(OC(F)(F)C(F)(OC(F)(F)C(F)(F)C(F)(F)F)C(F)(F)F)C(F)(F)F)C(F)(F)F [Perfluoro-(2,5,8-trimethyl-3,6,9-trioxadodecanoic)acid] (in DMSO); conditions: 370 nM
Protocol: as §1

[10] = compound: O=C(O)C(F)(F)C(F)(F)C(F)(F)OC(F)(C(F)(F)F)C(F)(F)F [Perfluoro-4-isopropoxybutanoic acid] (in DMSO); conditions: 2200 nM
Protocol: as §1

[11] = compound: FC(F)(F)C(F)(F)C(F)(F)C(F)(F)CCI [1H,1H,2H,2H-Perfluorohexyl iodide] (in DMSO); conditions: 2200 nM
Protocol: as §1

[12] = compound: C=C(C)C(=O)OCCC(F)(F)C(F)(F)C(F)(F)C(F)(F)C(F)(F)C(F)(F)F [6:2 Fluorotelomer methacrylate] (in DMSO); conditions: 2200 nM
Protocol: as §1

[13] = compound: CNS(=O)(=O)C(F)(F)C(F)(F)C(F)(F)C(F)(F)C(F)(F)C(F)(F)C(F)(F)C(F)(F)F [N-Methylperfluorooctanesulfonamide] (in DMSO); conditions: 2200 nM
Protocol: as §1

[14] = compound: O=C(O)CCC(F)(F)C(F)(F)C(F)(F)F [3:3 Fluorotelomer carboxylic acid] (in DMSO); conditions: 2200 nM
Protocol: as §1

[15] = compound: O=C(O)C(F)(OC(F)(F)C(F)(F)C(F)(F)F)C(F)(F)F [Ammonium perfluoro-2-methyl-3-oxahexanoate] (in Water)
Protocol: as §1

Row | Test System | level (log10) [1] | level (log10) ([2]; 2200 nM) | level (log10) ([2]; 6700 nM) | level (log10) ([2]; 20000 nM) | level (log10) ([2]; 60000 nM) | level (log10) [3] | level (log10) [4] | level (log10) [5] | level (log10) (Hexafluoroglutaric acid; 2200 nM) | level (log10) (Hexafluoroglutaric acid; 6700 nM) | level (log10) (Hexafluoroglutaric acid; 20000 nM) | level (log10) (Hexafluoroglutaric acid; 60000 nM) | level (log10) [6] | level (log10) [7] | level (log10) [8] | level (log10) (Perfluorohexanoic acid; 2200 nM) | level (log10) (Perfluorohexanoic acid; 6700 nM) | level (log10) (Perfluorohexanoic acid; 20000 nM) | level (log10) (Perfluorohexanoic acid; 60000 nM) | level (log10) [9] | level (log10) [10] | level (log10) [11] | level (log10) [12] | level (log10) [13] | level (log10) [14] | level (log10) ([15]; 2200 nM) | level (log10) ([15]; 6700 nM) | level (log10) ([15]; 20000 nM) | level (log10) ([15]; 60000 nM)
1 | 4H:VEGFR2 | 0.007 ± 0.0042 | -0.0095 ± 0.061 | -0.049 ± 0.04 | -0.0215 ± 0.026 | -0.012 ± 0.0071 | 0.037 ± 0.025 | 0.0155 ± 0.05 | 0.0205 ± 0.066 | 0.003 ± 0.0014 | 0.0005 ± 0.016 | -0.04 ± 0.0099 | -0.0095 ± 0.0078 | 0.011 ± 0.0099 | 0.058 ± 0.024 | 0.004 ± 0.064 | 0.014 ± 0.034 | -0.003 ± 0.021 | -0.009 ± 0.014 | -0.001 ± 0.024 | -0.0005 ± 0.043 | 0.009 ± 0.034 | -0.0085 ± 0.097 | -0.0145 ± 0.061 | -0.0025 ± 0.049 | -0.003 ± 0.0028 | 0.025 ± 0.025 | 0.0035 ± 0.04 | 0.007 ± 0.014 | 0.0095 ± 0.018
2 | BE3C:CD54/ICAM-1 | -0.0085 ± 0.012 | -0.0035 ± 0.012 | -0.0185 ± 0.0021 | -0.009 ± 0.0028 | -0.021 ± 0.0057 | -0.0105 ± 0.011 | 0.005 ± 0.013 | 0.0275 ± 0.012 | 0.007 ± 0.0042 | 0.018 ± 0.0042 | 0.0095 ± 0.018 | 0.009 ± 0.02 | 0.0045 ± 0.03 | 0.002 ± 0.025 | 0.002 ± 0.014 | 0.001 ± 0.0085 | 0.0065 ± 0.00071 | -0.0145 ± 0.0064 | -0.014 ± 0.013 | 0.0225 ± 0.044 | 0.0115 ± 0.035 | 0.021 ± 0.037 | 0.01 ± 0.037 | 0.024 ± 0.023 | 0.005 ± 0.0085 | -0.004 ± 0.011 | -0.007 ± 0.0057 | -0.0025 ± 0.0035 | -0.016
3 | BE3C:CD87/uPAR | -0.0015 ± 0.011 | -0.0315 ± 0.022 | -0.035 ± 0.0028 | -0.044 ± 0.016 | -0.037 ± 0.027 | 0.013 ± 0.013 | 0.01 ± 0.054 | 0.03 ± 0.017 | 0.0005 ± 0.019 | -0.0045 ± 0.0092 | -0.01 ± 0.014 | -0.0125 ± 0.011 | 0.0085 ± 0.1 | 0.012 ± 0.025 | 0.0205 ± 0.0092 | -0.001 ± 0.0057 | -0.002 ± 0.0085 | -0.0105 ± 0.00071 | 0.0205 ± 0.00071 | -0.0045 ± 0.016 | 0.0195 ± 0.047 | 0.0185 ± 0.042 | -0.026 ± 0.093 | 0.0425 ± 0.023 | 0.0085 ± 0.052 | 0.0245 ± 0.0021 | 0.011 ± 0.034 | 0.0215 ± 0.0078 | 0.027 ± 0.0085
4 | BE3C:CXCL8/IL-8 | 0.044 ± 0.088 | 0.025 ± 0.055 | 0.0075 ± 0.035 | 0.013 ± 0.028 | 0.0005 ± 0.0092 | 0.029 ± 0.02 | -0.006 ± 0.04 | 0.0055 ± 0.0035 | 0 ± 0.0028 | -0.011 ± 0.014 | -0.0165 ± 0.0064 | -0.011 ± 0.02 | -0.006 ± 0.099 | 0.0125 ± 0.037 | 0.0205 ± 0.046 | 0.0205 ± 0.036 | 0.0095 ± 0.042 | 0.0135 ± 0.00071 | 0.017 ± 0.021 | 0.068 ± 0.076 | 0.015 ± 0.054 | 0.012 ± 0.03 | 0.05 ± 0.12 | -0.0195 ± 0.056 | 0.0095 ± 0.013 | 0.018 ± 0.037 | -0.013 ± 0.071 | 0.0005 ± 0.011 | 0.0195 ± 0.011
